Data taken from the supplement of paper PMC12595434, “Development of retinoid nuclear receptor pathway antagonists through targeting aldehyde dehydrogenase 1A3” (iScience, 2025).
The other results are listed elsewhere or left out. Single values of this set are uncertain.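 Tm was set to 64 °C where no melting was found, and many curves are irregular.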

The chains behind the UniProt entries cited, without tags or fusion partners. Where a name states a change or a piece, a line headed by the entry shows the natural chain unless it says otherwise.
UniProt Q8NEZ5: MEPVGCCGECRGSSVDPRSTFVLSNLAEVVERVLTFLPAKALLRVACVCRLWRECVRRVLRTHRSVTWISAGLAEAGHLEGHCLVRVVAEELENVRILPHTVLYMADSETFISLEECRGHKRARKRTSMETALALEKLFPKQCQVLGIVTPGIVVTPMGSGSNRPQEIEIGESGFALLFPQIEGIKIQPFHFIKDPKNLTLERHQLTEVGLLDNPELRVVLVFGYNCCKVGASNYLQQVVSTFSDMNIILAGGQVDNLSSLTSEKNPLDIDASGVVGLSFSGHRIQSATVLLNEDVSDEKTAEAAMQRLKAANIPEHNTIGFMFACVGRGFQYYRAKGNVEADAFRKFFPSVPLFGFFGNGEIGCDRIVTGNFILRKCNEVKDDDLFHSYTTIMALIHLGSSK
UniProt Q8WUI4: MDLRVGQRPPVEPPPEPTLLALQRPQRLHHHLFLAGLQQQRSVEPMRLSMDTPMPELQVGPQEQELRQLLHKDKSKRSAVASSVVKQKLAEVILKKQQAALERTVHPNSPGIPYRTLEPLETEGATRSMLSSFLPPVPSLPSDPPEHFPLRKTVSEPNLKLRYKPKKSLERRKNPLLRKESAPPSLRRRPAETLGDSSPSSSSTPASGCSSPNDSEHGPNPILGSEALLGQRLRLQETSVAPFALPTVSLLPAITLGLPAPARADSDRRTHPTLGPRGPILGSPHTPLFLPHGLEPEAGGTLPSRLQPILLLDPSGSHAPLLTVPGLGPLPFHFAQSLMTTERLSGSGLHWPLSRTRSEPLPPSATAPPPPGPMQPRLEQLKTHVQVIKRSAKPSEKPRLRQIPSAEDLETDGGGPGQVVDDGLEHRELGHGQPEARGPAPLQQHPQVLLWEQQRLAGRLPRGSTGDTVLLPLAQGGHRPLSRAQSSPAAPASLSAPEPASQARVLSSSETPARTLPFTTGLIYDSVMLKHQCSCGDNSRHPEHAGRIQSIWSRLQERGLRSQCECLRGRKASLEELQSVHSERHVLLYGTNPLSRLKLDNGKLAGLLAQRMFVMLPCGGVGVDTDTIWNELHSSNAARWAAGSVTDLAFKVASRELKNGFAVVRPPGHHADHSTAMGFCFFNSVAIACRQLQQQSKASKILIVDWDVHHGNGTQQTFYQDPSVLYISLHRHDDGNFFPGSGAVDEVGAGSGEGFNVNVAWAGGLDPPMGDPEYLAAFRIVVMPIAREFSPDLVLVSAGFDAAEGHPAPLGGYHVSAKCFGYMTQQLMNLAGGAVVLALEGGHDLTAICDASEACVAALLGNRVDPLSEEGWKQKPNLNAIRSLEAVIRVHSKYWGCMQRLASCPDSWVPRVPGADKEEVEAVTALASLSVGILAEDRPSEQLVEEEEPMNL
UniProt Q8WVY7: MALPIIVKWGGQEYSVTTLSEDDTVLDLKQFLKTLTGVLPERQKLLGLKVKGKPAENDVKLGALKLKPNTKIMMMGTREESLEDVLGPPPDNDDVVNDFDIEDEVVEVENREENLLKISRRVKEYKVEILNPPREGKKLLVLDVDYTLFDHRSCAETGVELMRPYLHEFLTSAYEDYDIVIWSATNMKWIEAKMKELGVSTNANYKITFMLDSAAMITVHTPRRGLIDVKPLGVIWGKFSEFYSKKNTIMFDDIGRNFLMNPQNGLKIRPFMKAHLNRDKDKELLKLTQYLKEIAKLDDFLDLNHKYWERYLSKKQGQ
UniProt Q8NBJ7: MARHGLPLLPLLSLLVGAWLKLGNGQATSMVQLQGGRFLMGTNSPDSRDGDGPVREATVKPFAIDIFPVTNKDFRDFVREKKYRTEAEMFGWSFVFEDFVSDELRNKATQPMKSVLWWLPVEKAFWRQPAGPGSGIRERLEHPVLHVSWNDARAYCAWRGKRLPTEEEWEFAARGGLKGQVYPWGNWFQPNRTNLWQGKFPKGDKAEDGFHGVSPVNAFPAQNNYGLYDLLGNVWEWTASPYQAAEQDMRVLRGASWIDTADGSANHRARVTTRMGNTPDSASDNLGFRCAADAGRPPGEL
UniProt Q8TCN5: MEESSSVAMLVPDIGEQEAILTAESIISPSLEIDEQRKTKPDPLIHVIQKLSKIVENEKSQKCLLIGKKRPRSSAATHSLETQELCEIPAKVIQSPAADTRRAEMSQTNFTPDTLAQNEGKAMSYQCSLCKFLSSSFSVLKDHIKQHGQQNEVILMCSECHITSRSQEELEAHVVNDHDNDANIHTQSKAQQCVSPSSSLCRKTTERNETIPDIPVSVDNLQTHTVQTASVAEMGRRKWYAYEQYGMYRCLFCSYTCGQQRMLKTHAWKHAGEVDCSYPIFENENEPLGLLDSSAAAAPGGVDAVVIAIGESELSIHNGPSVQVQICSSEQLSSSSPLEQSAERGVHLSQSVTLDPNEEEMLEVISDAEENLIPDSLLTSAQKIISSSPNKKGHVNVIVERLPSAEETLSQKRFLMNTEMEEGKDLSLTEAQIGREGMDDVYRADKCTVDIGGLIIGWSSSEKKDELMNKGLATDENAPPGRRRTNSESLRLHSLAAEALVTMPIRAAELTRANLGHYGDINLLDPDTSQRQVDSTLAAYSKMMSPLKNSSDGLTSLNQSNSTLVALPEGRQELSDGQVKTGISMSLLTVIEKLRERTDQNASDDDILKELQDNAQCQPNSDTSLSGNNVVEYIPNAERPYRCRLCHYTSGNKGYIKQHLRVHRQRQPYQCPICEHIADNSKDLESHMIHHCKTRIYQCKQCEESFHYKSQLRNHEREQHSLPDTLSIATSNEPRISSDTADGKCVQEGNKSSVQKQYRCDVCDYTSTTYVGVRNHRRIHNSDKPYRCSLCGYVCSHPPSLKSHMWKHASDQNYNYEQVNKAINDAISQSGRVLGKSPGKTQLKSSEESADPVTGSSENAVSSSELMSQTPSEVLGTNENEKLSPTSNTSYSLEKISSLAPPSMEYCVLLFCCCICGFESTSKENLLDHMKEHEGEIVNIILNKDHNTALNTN
UniProt Q8WVZ9: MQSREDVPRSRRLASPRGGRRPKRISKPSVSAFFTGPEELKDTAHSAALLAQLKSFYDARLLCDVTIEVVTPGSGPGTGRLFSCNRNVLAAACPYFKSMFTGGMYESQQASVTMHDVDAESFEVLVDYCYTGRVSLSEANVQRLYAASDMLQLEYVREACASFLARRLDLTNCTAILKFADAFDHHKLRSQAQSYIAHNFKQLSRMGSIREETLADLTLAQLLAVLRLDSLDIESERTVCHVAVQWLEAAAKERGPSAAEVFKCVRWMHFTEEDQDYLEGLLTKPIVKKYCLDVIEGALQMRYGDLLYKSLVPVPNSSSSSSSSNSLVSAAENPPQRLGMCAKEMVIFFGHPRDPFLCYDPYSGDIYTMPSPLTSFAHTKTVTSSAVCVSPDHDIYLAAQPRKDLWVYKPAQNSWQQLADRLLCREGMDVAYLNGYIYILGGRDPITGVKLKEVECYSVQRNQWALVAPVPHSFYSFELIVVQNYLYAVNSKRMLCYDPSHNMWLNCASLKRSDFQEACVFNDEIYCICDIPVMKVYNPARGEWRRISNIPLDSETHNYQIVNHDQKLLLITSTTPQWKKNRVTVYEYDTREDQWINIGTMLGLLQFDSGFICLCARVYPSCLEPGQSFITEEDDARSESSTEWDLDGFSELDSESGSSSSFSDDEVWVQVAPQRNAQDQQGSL
UniProt Q8TER5, whole entry: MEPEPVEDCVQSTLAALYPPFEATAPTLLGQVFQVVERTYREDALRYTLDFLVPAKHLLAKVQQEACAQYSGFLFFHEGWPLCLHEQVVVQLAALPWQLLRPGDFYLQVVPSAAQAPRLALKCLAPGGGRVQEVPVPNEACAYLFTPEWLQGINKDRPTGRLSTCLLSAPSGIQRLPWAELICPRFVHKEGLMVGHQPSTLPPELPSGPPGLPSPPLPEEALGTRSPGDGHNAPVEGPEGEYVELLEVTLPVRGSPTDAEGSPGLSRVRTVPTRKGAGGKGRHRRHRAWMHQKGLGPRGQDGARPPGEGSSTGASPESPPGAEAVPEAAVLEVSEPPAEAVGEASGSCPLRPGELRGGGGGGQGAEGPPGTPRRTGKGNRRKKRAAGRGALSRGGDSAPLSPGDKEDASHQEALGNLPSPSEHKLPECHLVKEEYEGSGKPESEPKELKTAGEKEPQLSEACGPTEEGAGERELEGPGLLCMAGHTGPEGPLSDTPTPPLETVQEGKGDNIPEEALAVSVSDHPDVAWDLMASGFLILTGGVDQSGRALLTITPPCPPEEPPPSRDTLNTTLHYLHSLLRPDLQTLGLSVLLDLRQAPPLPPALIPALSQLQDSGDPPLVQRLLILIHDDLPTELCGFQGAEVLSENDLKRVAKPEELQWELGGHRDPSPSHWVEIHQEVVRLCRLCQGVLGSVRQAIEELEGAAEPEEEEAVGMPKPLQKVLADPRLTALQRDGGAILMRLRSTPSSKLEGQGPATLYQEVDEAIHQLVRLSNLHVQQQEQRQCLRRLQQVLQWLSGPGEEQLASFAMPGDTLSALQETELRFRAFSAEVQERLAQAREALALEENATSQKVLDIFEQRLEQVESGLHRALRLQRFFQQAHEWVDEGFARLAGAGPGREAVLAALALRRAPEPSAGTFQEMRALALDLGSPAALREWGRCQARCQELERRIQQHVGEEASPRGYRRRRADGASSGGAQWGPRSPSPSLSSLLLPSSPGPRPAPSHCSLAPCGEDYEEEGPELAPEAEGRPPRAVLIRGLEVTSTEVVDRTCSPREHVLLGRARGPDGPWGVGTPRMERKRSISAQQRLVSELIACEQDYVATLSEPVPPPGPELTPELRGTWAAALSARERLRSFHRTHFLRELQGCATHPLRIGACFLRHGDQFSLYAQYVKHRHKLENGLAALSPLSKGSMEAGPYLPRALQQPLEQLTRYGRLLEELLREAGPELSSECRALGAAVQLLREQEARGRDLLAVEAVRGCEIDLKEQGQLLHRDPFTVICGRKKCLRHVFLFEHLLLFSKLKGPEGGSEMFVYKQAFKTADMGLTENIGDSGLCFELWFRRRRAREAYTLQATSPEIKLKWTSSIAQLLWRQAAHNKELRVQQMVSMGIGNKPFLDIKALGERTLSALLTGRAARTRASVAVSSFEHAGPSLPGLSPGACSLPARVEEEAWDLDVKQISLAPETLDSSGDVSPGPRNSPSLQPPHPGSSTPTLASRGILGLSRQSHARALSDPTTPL
UniProt Q8NEZ3: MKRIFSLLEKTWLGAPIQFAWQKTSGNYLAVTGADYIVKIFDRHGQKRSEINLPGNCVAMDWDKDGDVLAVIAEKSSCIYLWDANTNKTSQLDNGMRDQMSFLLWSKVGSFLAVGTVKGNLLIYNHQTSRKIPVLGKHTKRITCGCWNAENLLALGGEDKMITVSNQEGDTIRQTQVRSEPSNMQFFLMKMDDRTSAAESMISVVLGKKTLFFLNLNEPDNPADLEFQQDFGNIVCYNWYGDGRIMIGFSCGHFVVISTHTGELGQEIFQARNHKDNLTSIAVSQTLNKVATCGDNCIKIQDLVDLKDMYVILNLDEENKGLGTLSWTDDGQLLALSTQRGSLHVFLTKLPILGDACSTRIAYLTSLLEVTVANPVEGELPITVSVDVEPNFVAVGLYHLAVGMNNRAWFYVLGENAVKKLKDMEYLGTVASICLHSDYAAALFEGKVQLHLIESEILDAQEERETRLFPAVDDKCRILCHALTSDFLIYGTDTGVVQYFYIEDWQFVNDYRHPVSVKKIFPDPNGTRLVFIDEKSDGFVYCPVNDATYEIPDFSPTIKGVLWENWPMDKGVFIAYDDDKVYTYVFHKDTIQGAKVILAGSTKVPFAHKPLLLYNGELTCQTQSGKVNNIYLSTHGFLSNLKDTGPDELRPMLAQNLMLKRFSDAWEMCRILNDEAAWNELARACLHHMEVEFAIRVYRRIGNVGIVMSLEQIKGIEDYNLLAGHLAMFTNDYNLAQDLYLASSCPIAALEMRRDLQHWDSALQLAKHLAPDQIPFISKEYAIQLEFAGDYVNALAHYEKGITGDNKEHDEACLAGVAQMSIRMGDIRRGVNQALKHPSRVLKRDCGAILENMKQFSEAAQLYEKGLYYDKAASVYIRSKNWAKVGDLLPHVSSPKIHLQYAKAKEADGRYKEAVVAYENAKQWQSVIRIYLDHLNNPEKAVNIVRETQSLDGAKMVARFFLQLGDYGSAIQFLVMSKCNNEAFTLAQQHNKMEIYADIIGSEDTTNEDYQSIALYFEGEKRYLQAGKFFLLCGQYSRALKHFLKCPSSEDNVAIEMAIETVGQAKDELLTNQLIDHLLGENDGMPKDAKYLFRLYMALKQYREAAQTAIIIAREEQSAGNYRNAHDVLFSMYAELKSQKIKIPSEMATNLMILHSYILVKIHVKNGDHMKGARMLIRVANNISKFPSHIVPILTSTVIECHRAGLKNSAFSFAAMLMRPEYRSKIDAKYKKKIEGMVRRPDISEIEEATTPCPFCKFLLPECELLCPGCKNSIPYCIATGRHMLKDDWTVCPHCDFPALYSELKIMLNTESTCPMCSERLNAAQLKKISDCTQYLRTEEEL

Compound: CCc1cnccc1C(=O)Nc1cc2c(cc1F)NC(=O)CC2
Experiment: melting temperature shift (DMSO Tm minus MBE1-treated Tm) in cellular thermal proteome profiling; higher = less thermal stabilization by MBE1 (negative = stabilized by MBE1)
Conditions: A375

Target: LPCAT1 (UniProt Q8NF37)
- melting temperature shift (MBE1 concentration: 100 nM): -0.637 °C
- melting temperature shift (MBE1 concentration: 1 uM): 0.617 °C

Target: UniProt Q8NBR6
- melting temperature shift (MBE1 concentration: 100 nM): 0.58 °C
- melting temperature shift (MBE1 concentration: 1 uM): 0.324 °C

Target: UniProt Q8ND76
- melting temperature shift (MBE1 concentration: 100 nM): 0 °C
- melting temperature shift (MBE1 concentration: 1 uM): 0.269 °C

Target: UniProt Q8TCT7
- melting temperature shift (MBE1 concentration: 100 nM): -1.01 °C
- melting temperature shift (MBE1 concentration: 1 uM): 1.01 °C

Target: JMY (UniProt Q8N9B5)
- melting temperature shift (MBE1 concentration: 100 nM): -0.461 °C
- melting temperature shift (MBE1 concentration: 1 uM): 0.174 °C

Target: PI4K2B (UniProt Q8TCG2)
- melting temperature shift (MBE1 concentration: 100 nM): 0.928 °C
- melting temperature shift (MBE1 concentration: 1 uM): 0.391 °C

Target: MRPL30 (UniProt Q8TCC3)
- melting temperature shift (MBE1 concentration: 100 nM): 1.03 °C
- melting temperature shift (MBE1 concentration: 1 uM): 0.275 °C

Target: FBXO22 (UniProt Q8NEZ5)
- melting temperature shift (MBE1 concentration: 100 nM): -0.441 °C
- melting temperature shift (MBE1 concentration: 1 uM): 1.21 °C

Target: PHF10 (UniProt Q8WUB8)
- melting temperature shift (MBE1 concentration: 100 nM): -0.41 °C
- melting temperature shift (MBE1 concentration: 1 uM): -0.545 °C

Target: FANCB (UniProt Q8NB91)
- melting temperature shift (MBE1 concentration: 100 nM): -1.59 °C
- melting temperature shift (MBE1 concentration: 1 uM): 0.0916 °C

Target: VPS37A (UniProt Q8NEZ2)
- melting temperature shift (MBE1 concentration: 100 nM): -0.583 °C
- melting temperature shift (MBE1 concentration: 1 uM): -0.67 °C

Target: TMEM87A (UniProt Q8NBN3)
- melting temperature shift (MBE1 concentration: 100 nM): -2.31 °C
- melting temperature shift (MBE1 concentration: 1 uM): -2.92 °C

Target: RNF149 (UniProt Q8NC42)
- melting temperature shift (MBE1 concentration: 100 nM): 2.29 °C
- melting temperature shift (MBE1 concentration: 1 uM): -0.733 °C

Target: HDAC7 (UniProt Q8WUI4)
- melting temperature shift (MBE1 concentration: 100 nM): -1.76 °C
- melting temperature shift (MBE1 concentration: 1 uM): -1.53 °C

Target: UBLCP1 (UniProt Q8WVY7)
- melting temperature shift (MBE1 concentration: 100 nM): -0.244 °C
- melting temperature shift (MBE1 concentration: 1 uM): 0.171 °C

Target: UniProt Q8NAT1
- melting temperature shift (MBE1 concentration: 100 nM): -1.28 °C
- melting temperature shift (MBE1 concentration: 1 uM): -0.177 °C

Target: SUMF2 (UniProt Q8NBJ7)
- melting temperature shift (MBE1 concentration: 100 nM): -0.879 °C
- melting temperature shift (MBE1 concentration: 1 uM): 0.574 °C

Target: UniProt Q8TCN5
- melting temperature shift (MBE1 concentration: 100 nM): -1.38 °C
- melting temperature shift (MBE1 concentration: 1 uM): -0.679 °C

Target: UniProt Q8N9N5
- melting temperature shift (MBE1 concentration: 100 nM): 0.102 °C
- melting temperature shift (MBE1 concentration: 1 uM): -0.352 °C

Target: UniProt Q8WVZ9
- melting temperature shift (MBE1 concentration: 100 nM): 0.708 °C
- melting temperature shift (MBE1 concentration: 1 uM): 0.721 °C

Target: THEM6 (UniProt Q8WUY1)
- melting temperature shift (MBE1 concentration: 100 nM): 0.765 °C
- melting temperature shift (MBE1 concentration: 1 uM): 1.36 °C

Target: PPHLN1 (UniProt Q8NEY8)
- melting temperature shift (MBE1 concentration: 100 nM): 0.0961 °C
- melting temperature shift (MBE1 concentration: 1 uM): -1.78 °C

Target: CEP192 (UniProt Q8TEP8)
- melting temperature shift (MBE1 concentration: 100 nM): -2.16 °C
- melting temperature shift (MBE1 concentration: 1 uM): -1.06 °C

Target: UniProt Q8TER5
- melting temperature shift (MBE1 concentration: 100 nM): -0.898 °C
- melting temperature shift (MBE1 concentration: 1 uM): -0.679 °C

Target: NHLRC2 (UniProt Q8NBF2)
- melting temperature shift (MBE1 concentration: 100 nM): -0.0305 °C
- melting temperature shift (MBE1 concentration: 1 uM): 0.605 °C

Target: WDR19 (UniProt Q8NEZ3)
- melting temperature shift (MBE1 concentration: 100 nM): -1.47 °C
- melting temperature shift (MBE1 concentration: 1 uM): -0.301 °C
